Results taken from PubChem BioAssay AID248 (DTP/NCI, 2004).
The list is a part of this screen's results and no random one: it gathers tests that were run many times, whatever their T/C, doses with no T/C, and many T/C values between a quarter and a half above the control. Other doses and runs of a compound stand elsewhere. T/C: endpoint of the treated group in % of that of the vehicle group. Some entries give survivors of the animals treated and no T/C: the source files T/C as zero there, which appears to mark a toxic dose or a test without result, not a measured value. Some survivor counts are full or nearly so, which does not show that the dose was tolerated: survival well below the control is almost never listed, so the zero probably covers shortened survival too. Survivors were counted at the toxicity check, usually on the fifth day, unless a day is given; later deaths do not show. Schedule codes are those of the source, taken here to give the interval after Q, in days (D) or hours (H), and the number of doses after X. Some entries were tested several times; the values are given in rising order. Some schedule codes hold Z or #, which are not explained here. Where survival is the endpoint, this PubChem deposit counts one and a half times the control or more as active, and values a quarter to a half above the control carry no call in these data; other NCI protocols may use other cut-offs. Marks such as (2×) count equal records among those shown. Some T/C values carry the count of animals alive at the toxicity check (mostly the fifth day); where none is given, no animal had died by that day.

System: L1210 leukemia ip in BDF1 mice, survival T/C
Experiment: NCI In Vivo Anticancer Drug Screen. Data for tumor model L1210 Leukemia (intraperitoneal) in B6D2F1 (BDF1) mice
Settings: T/C endpoint: mean survival time, higher T/C = longer survival

`CC[C@](O)(C(=O)O)c1cc2n(c(=O)c1CO)Cc1cc3ccccc3nc1-2` was tested, and the T/C (dose: 0.5 mg/kg/injection, schedule: Q01DX010 (ip), vehicle: saline) was 138 % of control, the T/C (dose: 0.5 mg/kg/injection, schedule: Q01DX010 (oral), vehicle: saline) was 125 % of control and the T/C (dose: 0.5 mg/kg/injection, schedule: Q01DX Z (ip), vehicle: saline) was 127 % of control. The T/C (dose: 0.5 mg/kg/injection, schedule: Q#A X Z (ip), vehicle: saline) was 130 % of control, the T/C (dose: 1.0 mg/kg/injection, schedule: Q01DX010 (ip), vehicle: saline) was 149 % of control and the T/C (dose: 1.0 mg/kg/injection, schedule: Q01DX010 (iv), vehicle: saline) was 129 % of control. For the same molecule, the T/C (dose: 1.0 mg/kg/injection, schedule: Q01DX Z (ip), vehicle: saline) was 125 and 140 % of control, the T/C (dose: 1.3 mg/kg/injection, schedule: Q01DX009 (ip), vehicle: saline) was 115, 120, 125, 134 % of control and the T/C (dose: 1.5 mg/kg/injection, schedule: Q#A X Z (ip), vehicle: saline) was 138 % of control. The T/C (dose: 2.0 mg/kg/injection, schedule: Q01DX009 (ip), vehicle: saline, evaluated on day 30) was 133 % of control, the T/C (dose: 2.0 mg/kg/injection, schedule: Q01DX009 (ip), vehicle: saline, evaluated on day 40) was 137 % of control and the T/C (dose: 2.0 mg/kg/injection, schedule: Q01DX009 (oral), vehicle: water) was 125 % of control. For the same molecule, the T/C (dose: 2.0 mg/kg/injection, schedule: Q01DX010 (iv), vehicle: saline) was 148 % of control, the T/C (dose: 2.0 mg/kg/injection, schedule: Q01DX015 (oral), vehicle: saline) was 146 % of control and the T/C (dose: 2.0 mg/kg/injection, schedule: Q01DX Z (im), vehicle: saline) was 143 % of control. The T/C (dose: 2.0 mg/kg/injection, schedule: Q01DX Z (ip), vehicle: saline) was 107, 133, 163, 178 % of control (2×), the T/C (dose: 2.0 mg/kg/injection, schedule: Q01DX Z (oral), vehicle: saline) was 125 (2×) and 147 % of control and the T/C (dose: 2.5 mg/kg/injection, schedule: Q01DX009 (ip), vehicle: saline) was 131 (2×), 138, 141 % of control. The T/C (dose: 3.0 mg/kg/injection, schedule: Q01DX006 (iv), vehicle: saline) was 132 % of control, the T/C (dose: 3.0 mg/kg/injection, schedule: Q01DX015 (oral), vehicle: saline) was 144 % of control and the T/C (dose: 3.0 mg/kg/injection, schedule: Q01DX Z (im), vehicle: saline) was 138 % of control. For the same molecule, the T/C (dose: 3.0 mg/kg/injection, schedule: Q01DX Z (oral), vehicle: saline) was 135 % of control, the survivor count (dose: 3.35 mg/kg/injection, schedule: Q#A X Z (ip), vehicle: saline) was 6 of 6 and the T/C (dose: 4.0 mg/kg/injection, schedule: Q01DX009 (ip), vehicle: saline) was 133 % of control. For the same molecule, the T/C (dose: 4.0 mg/kg/injection, schedule: Q01DX010 (iv), vehicle: saline) was 148 % of control, the T/C (dose: 4.5 mg/kg/injection, schedule: Q01DX Z (sc), vehicle: saline) was 135 % of control and the T/C (dose: 5.0 mg/kg/injection, schedule: Q01DX009 (ip), vehicle: saline) was 111, 113, 153, 161 % of control. For the same molecule, the T/C (dose: 5.0 mg/kg/injection, schedule: Q## X003 (ip), vehicle: saline) was 132 % of control, the T/C (dose: 5.0 mg/kg/injection, schedule: Q## X003 (oral), vehicle: saline) was 127 % of control and the survivor count (dose: 6.0 mg/kg/injection, schedule: Q01DX Z (oral), vehicle: saline) was 5 of 6. For the same molecule, the T/C (dose: 6.0 mg/kg/injection, schedule: Q03DX Z (ip), vehicle: saline) was 129 and 147 % of control, the T/C (dose: 6.5 mg/kg/injection, schedule: Q01DX006 (iv), vehicle: saline) was 126 % of control and the survivor count (dose: 6.5 mg/kg/injection, schedule: Q01DX Z (im), vehicle: saline) was 5 of 6. The survivor count (dose: 6.5 mg/kg/injection, schedule: Q01DX Z (sc), vehicle: saline) was 6 of 6, the survivor count (dose: 8.0 mg/kg/injection, schedule: Q01DX009 (oral), vehicle: water) was 10 of 10 and the survivor count (dose: 8.0 mg/kg/injection, schedule: Q01DX010 (ip), vehicle: saline) was 5 of 6. For the same molecule, the survivor count (dose: 8.0 mg/kg/injection, schedule: Q01DX010 (iv), vehicle: saline) was 6 of 6, the survivor count (dose: 8.0 mg/kg/injection, schedule: Q01DX010 (oral), vehicle: saline) was 6 of 6 and the survivor count (dose: 8.0 mg/kg/injection, schedule: Q01DX Z (oral), vehicle: saline) was 6 of 6. For the same molecule, the survivor count (dose: 9.5 mg/kg/injection, schedule: Q01DX006 (iv), vehicle: saline) was 5 of 6, the survivor count (dose: 9.5 mg/kg/injection, schedule: Q01DX Z (sc), vehicle: saline) was 6 of 6 and the T/C (dose: 10.0 mg/kg/injection, schedule: Q01DX001 (oral), vehicle: saline) was 139 % of control. The T/C (dose: 10.0 mg/kg/injection, schedule: Q01DX001 (oral), vehicle: water) was 131 % of control [9 of 10 alive], the survivor count (dose: 10.0 mg/kg/injection, schedule: Q01DX009 (ip), vehicle: saline) was 3 of 3 and 6 of 6 and the T/C (dose: 10.0 mg/kg/injection, schedule: Q04DX002 (ip), vehicle: saline) was 117, 119, 124, 138 % of control. For the same molecule, the T/C (dose: 10.0 mg/kg/injection, schedule: Q04DX003 (ip), vehicle: saline) was 144 % of control.
